# Measured values reported in article PMC12670160, “A drug-repurposing screen of FDA- and EMA-approved drugs identifies two NF-κB inhibitors active against eumycetoma” (Journal of Antimicrobial Chemotherapy, 2025).
# Counter-ions that a name gives are not always drawn. Hit rate of the full screen: of about 5,300 compounds, about 130 (2.5%) showed an effect of 50% or more. This is one part of the list.
# System: M. mycetomatis strain mm55
# Conditions: primary screen, metabolic activity vs growth control; 96 h, 2 µM; inhibitor
row,Compound,% viability [%]
1,"CC(C)c1cc(C(C)C)c(CC(=O)NS(=O)(=O)Oc2c(C(C)C)cccc2C(C)C)c(C(C)C)c1 [ONC0005210, avasimibe ci1011]",127
2,"CC(C)c1cc(CNc2nc(Nc3cc(C4CC4)[nH]n3)cc(N3CCN(C)CC3)n2)on1 [ONC0000976, xl228]",85.75
3,"C[N+](C)(C)CCOC(N)=O [ONC0000782, carbachol]",56.18
4,"O=C(NC(Cc1cc(=O)[nH]c2ccccc12)C(=O)O)c1ccc(Cl)cc1 (stereo not drawn) [ONC0003985, rebamipide]",70.5
5,"CC(C)(O)CC(=O)NCCn1ccc2ncnc(Nc3ccc(Oc4cccc(C(F)(F)F)c4)c(Cl)c3)c21 [ONC0004332, tak285]",87.28
6,"CCC1(C)CC(=O)NC1=O (stereo not drawn) [ONC0004181, ethosuximide]",56.87
7,"CC(=O)Nc1ccc(OC(C)=O)cc1 [ONC0004277, diacetamate]",91.81
8,"NC1CCN(c2c(F)cc3c(=O)c(C(=O)O)cn(C4CC4)c3c2Cl)C1 (stereo not drawn) [ONC0005238, clinafloxacin pd127391]",132.9
9,"NC[C@@H]1O[C@H](O[C@H]2[C@@H](O)[C@H](O[C@@H]3[C@@H](O)[C@H](N)C[C@H](N)[C@H]3O[C@H]3O[C@H](CN)[C@@H](O)[C@H](O)[C@H]3N)O[C@@H]2CO)[C@H](N)[C@@H](O)[C@@H]1O [ONC0000406, neomycin trisulfate]",75.91
10,"CSc1nc(N)cc(Oc2ccc(-c3nnc(Nc4cccc(C(F)(F)F)c4)[nH]3)cc2)n1 [ONC0001386, kg5]",120.8
11,"N=C(NCCC[C@H](N)C(=O)O)N[N+](=O)[O-] [ONC0002157, ngnitroarginine]",67.67
12,"Cc1c(C(=O)N2CCOc3ccc(-c4ccc(N)nc4)cc3C2)ccc(S(C)(=O)=O)c1F [ONC0005106, xl388]",97.48
13,"CCCNC(C)(C)COC(=O)c1ccccc1 [ONC0004176, meprylcaine hydrochloride]",98.91
14,"c1ccc2c(c1)Nc1ccccc1S2 [ONC0005312, phenothiazine]",78.68
15,"O=c1c2ccccc2[se]n1-c1ccccc1 [ONC0000594, ebselen]",96.79
16,"CN1CCN(c2ccc3[nH]c(-c4ccc5[nH]c(-c6ccc(O)cc6)nc5c4)nc3c2)CC1 [ONC0002045, hoechst 33258]",68.81
17,"CC(C)n1c(/C=C/[C@@H](O)C[C@@H](O)CC(=O)O)c(-c2ccc(F)cc2)c2ccccc21 (racemic) [ONC0004817, fluvastatin sodium lescol]",110.8
18,"COc1cc2nc(N3CCCN(C)CC3)nc(NC3CCN(Cc4ccccc4)CC3)c2cc1OC [ONC0004534, bix 01294]",44.63
19,"O=S(=O)(c1cccc2cnccc12)N1CCCNCC1 [ONC0003236, fasudil hydrochloride]",118.7
20,"O=C(c1ccc(F)c(F)c1Nc1ccc(I)cc1F)N1CC(O)([C@@H]2CCCCN2)C1 [ONC0000874, cobimetinib]",66.72

# For convenience, part of the list above.
row,Compound,% viability [%]
15,"O=c1c2ccccc2[se]n1-c1ccccc1 [ONC0000594, ebselen]",96.79
16,"CN1CCN(c2ccc3[nH]c(-c4ccc5[nH]c(-c6ccc(O)cc6)nc5c4)nc3c2)CC1 [ONC0002045, hoechst 33258]",68.81
17,"CC(C)n1c(/C=C/[C@@H](O)C[C@@H](O)CC(=O)O)c(-c2ccc(F)cc2)c2ccccc21 (racemic) [ONC0004817, fluvastatin sodium lescol]",110.8

# Carrying on.

row,Compound,% viability [%]
1,"CCc1nn(CCCN2CCN(c3cccc(Cl)c3)CC2)c(=O)n1CCOc1ccccc1 [ONC0004090, nefazodone hydrochloride]",102.1
2,"CCCN(CCC)C1Cc2cc(OC)c(OC)cc2C1 [ONC0001711, u99194]",83.59
3,"CC(C)c1cnn2c(NCc3ccccc3)cc(NCCCCCCN)nc12 [ONC0001480, bs181]",57.04
4,"COc1ccn2ncc(-c3nc4[nH]nc(NC(=O)c5ccc(F)cc5)c4cc3F)c2c1 [ONC0003626, cw008]",77.3
5,"Cc1ccc(/N=C/N(C)/C=N/c2ccc(C)cc2C)c(C)c1 [ONC0004157, amitraz]",109
6,"N[C@@H](CC(=O)N1CCn2c(nnc2C(F)(F)F)C1)Cc1n[nH]c2c(F)c(F)ccc12 [ONC0001660, pk44 phosphate]",33.36
7,"C[N+]1(C)C2CCC1CC(OC(=O)C(CO)c1ccccc1)C2 (stereo not drawn) [ONC0003986, methylatropine nitrate]",73.02
8,"O=C(Nc1ccccc1)C12CC1/C(=N\O)c1ccccc1O2 (stereo not drawn) [ONC0001426, phccc]",99.74
9,"CC(=O)Oc1ccc(C(c2ccc(OC(C)=O)cc2)c2ccccn2)cc1 [ONC0003223, bisacodyl]",92.7
10,"CCOC(=O)CC(=O)N1CCSC1COc1ccccc1OC (stereo not drawn) [ONC0004529, moguisteine]",69.36
11,"CCNC1(C(N)=O)CCN(c2ncnc3c2nc(-c2ccccc2Cl)n3-c2ccc(Cl)cc2)CC1 [ONC0000945, otenabant]",64.14
13,"COc1ccc(C2Sc3ccccc3N(CCN(C)C)C(=O)C2OC(C)=O)cc1 (stereo not drawn) [ONC0005348, diltiazem hydrochloride]",61.39
14,"O=C(CSc1nc2c(c(=O)n1-c1ccccc1)SCC2)Nc1ccc(-c2ccccc2)cn1 [ONC0005176, iwp l6]",95.67
15,"COC(=O)c1cc(OC)c2c(c1-c1c(C(=O)OC)cc(OC)c3c1OCO3)OCO2 [ONC0003333, bifendate]",41.54
16,"C[C@@H]1CN(c2c(F)c(F)c3c(=O)c(C(=O)O)cn(C4CC4)c3c2F)C[C@H](C)N1 [ONC0002428, orbifloxacin]",92.51
17,"CN(C[C@@H]1COCCO1)S(=O)(=O)Nc1ccc2ccc3ncc(-c4cnn(C)c4)cc3c(=O)c2c1 [ONC0005098, mk2461]",89.82
18,"C[N+](C)(C)[C@@H](Cc1c[nH]c(=S)[nH]1)C(=O)O [ONC0003509, lergothioneine]",51.74
19,"CCCc1nn(C)c2c(=O)[nH]c(-c3cc(S(=O)(=O)N4CCN(C)CC4)ccc3OCC)nc12 [ONC0002449, sildenafil citrate]",120.1
